The target of assay [1] is SH3 domain of Grap2 C-terminal (spot of the TranSignal SH3 domain array III) (human) (UniProt O75791). The assay can be described thus: peptide or protein array; TranSignal SH3 domain array III (34 human SH3 domains spotted in duplicate); membrane incubated with 30 µg/ml AQP5 WT overnight; detected with HRP-conjugated FLAG antibody; both purified.
Assay [2] concerns the target GST fusion protein of the C-terminal Grap2 SH3 domain (human) (UniProt O75791). As to the kind of experiment: pull-down; BEAS-2B lysate in NP-40 lysis buffer incubated with GST fusion protein at 4°C for 2 hours, glutathione-Sepharose 4B beads, immunoblot; only the target purified. A general note: Immunoblotting shows a protein as a band on a membrane.

Protein sequences, listed by entry. Tags and fused reporters are not part of them. Lines headed by an entry give the natural chain unless they say otherwise; changes in a name come on top.
UniProt O75791: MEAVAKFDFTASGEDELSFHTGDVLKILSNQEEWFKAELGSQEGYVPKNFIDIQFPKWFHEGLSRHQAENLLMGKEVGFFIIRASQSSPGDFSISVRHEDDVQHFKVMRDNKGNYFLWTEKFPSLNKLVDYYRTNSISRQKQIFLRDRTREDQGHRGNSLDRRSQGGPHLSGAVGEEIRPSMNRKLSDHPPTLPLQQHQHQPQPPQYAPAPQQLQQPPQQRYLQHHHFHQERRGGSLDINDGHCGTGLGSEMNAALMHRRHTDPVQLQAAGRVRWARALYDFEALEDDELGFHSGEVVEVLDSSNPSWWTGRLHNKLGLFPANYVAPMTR

Results are given in words; binding and its absence hold for the method and conditions named. A result given as binding can be weak or reduced; the word gives no strength. For some assays here: Binding seen in cells or lysates may run through a third protein.

Regarding “full length wild-type AQP5 (aquaporin 5) (from UniProt P55064 1-265)”, the binding result in assay [1] and in assay [2] was “binds” in each case.

(Values after article PMC2364652.)
